Results are given in words; binding and its absence hold for the method and conditions named. Binding seen in cells or lysates may run through a third protein. Some binding calls cover weakened binding; strength is not graded here.

By UniProt entry, the sequences of proteins in these tests, tags left out. Where a name states a change or a piece, a line headed by the entry shows the natural chain unless it says otherwise.
UniProt P15311: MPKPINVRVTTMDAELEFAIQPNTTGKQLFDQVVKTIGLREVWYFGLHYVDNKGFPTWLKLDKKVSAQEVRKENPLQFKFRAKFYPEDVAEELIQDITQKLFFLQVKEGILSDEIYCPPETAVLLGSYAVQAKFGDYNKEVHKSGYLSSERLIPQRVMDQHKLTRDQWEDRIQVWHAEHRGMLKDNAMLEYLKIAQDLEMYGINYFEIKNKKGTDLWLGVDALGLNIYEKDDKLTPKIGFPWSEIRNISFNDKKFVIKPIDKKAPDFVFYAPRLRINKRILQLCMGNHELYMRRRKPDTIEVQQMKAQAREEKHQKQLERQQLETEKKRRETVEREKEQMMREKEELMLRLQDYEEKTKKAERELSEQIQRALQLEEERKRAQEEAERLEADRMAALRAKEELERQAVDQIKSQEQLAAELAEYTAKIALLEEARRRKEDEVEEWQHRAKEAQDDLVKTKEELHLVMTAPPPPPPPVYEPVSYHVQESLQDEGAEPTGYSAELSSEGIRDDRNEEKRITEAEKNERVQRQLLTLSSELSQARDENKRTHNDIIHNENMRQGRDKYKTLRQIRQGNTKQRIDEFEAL
UniProt P26038: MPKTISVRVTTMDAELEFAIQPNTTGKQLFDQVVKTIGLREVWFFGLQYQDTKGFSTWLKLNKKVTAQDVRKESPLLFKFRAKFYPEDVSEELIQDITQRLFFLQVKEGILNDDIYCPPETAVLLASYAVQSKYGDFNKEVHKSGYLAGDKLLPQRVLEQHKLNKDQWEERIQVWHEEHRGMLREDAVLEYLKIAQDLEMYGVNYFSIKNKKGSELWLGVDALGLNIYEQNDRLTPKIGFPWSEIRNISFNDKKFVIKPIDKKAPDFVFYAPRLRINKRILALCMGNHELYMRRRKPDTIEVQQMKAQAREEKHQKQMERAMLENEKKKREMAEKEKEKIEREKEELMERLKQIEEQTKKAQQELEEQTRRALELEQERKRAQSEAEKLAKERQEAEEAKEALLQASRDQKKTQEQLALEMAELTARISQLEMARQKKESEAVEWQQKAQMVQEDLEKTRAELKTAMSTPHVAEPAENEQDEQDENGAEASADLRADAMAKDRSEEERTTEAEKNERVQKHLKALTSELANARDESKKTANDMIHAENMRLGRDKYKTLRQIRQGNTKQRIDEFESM

For test [1], the target named is T1, gD-tagged wild-type ErbB2 (human, UniProt P04626 23-1255).
T1 construct: whole, on cells; Expressed in HBMECs (human endothelial cells); also called gD-ErbB2-WT; gD-ErbB2 WT
As to the kind of experiment: GST pull-down, western blot. On the technique in general: In western blotting, separated proteins are transferred to a membrane and probed.

The target of test [2] is endogenous ErbB2 (human) (UniProt P04626). As to the kind of experiment: GST pull-down, western blot.
For test [3] the target is unchanged. As to the kind of experiment: GST pull-down from HBMEC lysates, western blot.
For test [4], the target named is T1, gD-tagged wild-type ErbB2. As to the kind of experiment: GST pull-down from HBMEC lysates, anti-gD western blot.
For test [5], the target named is T1, gD-tagged wild-type ErbB2. As to the kind of experiment: co-immunoprecipitation (IP gD) from HBMECs, western blot.

“GST fused with the amino-terminal domain (FERM domain) of ezrin (from UniProt P15311 1-295)”: the binding entry (in test [1]; with endogenous ErbB2 (human) [2]; in the test with endogenous ErbB2 (human) [3]; in test [4]) was “binds” in each case.

In the case of “endogenous moesin of human endothelial cells (HBMECs) (from UniProt P26038 2-577)”, in test [5], the binding result is reported as “binds”.

These data come from US20120214744A1 (L UNIVERSITE PARIS DESCARTES, published 2012).
